Measured values reported in the supplement of paper PMC10849652.
The other results are listed elsewhere or left out.

Amino acid sequences for entries named in this document (tags omitted). A change or cut given only in a name is not applied to a line headed by its entry.
UniProt Q13283, whole entry, looked up: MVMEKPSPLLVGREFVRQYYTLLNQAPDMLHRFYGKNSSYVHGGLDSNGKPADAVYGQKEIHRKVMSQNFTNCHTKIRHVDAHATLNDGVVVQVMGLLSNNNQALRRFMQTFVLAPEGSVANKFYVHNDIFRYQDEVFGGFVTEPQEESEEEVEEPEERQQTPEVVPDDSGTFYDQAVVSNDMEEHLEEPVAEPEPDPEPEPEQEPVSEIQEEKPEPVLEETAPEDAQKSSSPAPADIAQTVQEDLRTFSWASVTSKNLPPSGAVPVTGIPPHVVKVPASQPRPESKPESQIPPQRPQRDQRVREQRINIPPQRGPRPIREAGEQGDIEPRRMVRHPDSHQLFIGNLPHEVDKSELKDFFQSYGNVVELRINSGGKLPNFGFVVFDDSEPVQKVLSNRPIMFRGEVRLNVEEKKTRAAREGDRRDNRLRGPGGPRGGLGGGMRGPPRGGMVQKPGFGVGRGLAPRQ
UniProt Q96RP9: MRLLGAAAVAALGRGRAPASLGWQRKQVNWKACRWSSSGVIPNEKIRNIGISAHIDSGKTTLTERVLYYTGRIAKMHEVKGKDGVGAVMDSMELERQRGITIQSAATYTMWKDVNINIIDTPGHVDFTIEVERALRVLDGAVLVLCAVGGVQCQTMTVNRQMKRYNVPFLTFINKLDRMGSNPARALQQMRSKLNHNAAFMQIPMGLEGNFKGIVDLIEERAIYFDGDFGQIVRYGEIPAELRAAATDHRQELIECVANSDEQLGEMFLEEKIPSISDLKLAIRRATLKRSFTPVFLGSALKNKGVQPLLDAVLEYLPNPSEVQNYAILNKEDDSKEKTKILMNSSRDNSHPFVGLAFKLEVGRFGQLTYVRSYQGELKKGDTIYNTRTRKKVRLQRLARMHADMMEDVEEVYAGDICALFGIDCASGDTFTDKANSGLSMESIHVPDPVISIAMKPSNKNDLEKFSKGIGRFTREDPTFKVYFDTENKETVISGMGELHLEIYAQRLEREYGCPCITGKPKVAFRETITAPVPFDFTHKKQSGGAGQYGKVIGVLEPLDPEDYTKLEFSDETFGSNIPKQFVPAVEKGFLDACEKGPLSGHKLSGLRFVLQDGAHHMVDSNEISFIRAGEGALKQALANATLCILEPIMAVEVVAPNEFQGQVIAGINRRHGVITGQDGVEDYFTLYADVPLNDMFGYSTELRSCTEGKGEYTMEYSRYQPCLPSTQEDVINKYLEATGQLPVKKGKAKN
UniProt P04406: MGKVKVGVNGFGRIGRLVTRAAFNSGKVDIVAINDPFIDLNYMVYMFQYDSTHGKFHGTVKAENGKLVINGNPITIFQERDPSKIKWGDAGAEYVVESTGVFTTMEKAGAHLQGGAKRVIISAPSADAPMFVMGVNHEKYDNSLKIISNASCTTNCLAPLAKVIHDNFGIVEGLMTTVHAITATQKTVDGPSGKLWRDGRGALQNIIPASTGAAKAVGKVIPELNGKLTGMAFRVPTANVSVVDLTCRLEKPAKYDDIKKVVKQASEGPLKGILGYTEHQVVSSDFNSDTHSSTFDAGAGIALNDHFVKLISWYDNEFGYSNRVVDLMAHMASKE
UniProt Q7Z7M9: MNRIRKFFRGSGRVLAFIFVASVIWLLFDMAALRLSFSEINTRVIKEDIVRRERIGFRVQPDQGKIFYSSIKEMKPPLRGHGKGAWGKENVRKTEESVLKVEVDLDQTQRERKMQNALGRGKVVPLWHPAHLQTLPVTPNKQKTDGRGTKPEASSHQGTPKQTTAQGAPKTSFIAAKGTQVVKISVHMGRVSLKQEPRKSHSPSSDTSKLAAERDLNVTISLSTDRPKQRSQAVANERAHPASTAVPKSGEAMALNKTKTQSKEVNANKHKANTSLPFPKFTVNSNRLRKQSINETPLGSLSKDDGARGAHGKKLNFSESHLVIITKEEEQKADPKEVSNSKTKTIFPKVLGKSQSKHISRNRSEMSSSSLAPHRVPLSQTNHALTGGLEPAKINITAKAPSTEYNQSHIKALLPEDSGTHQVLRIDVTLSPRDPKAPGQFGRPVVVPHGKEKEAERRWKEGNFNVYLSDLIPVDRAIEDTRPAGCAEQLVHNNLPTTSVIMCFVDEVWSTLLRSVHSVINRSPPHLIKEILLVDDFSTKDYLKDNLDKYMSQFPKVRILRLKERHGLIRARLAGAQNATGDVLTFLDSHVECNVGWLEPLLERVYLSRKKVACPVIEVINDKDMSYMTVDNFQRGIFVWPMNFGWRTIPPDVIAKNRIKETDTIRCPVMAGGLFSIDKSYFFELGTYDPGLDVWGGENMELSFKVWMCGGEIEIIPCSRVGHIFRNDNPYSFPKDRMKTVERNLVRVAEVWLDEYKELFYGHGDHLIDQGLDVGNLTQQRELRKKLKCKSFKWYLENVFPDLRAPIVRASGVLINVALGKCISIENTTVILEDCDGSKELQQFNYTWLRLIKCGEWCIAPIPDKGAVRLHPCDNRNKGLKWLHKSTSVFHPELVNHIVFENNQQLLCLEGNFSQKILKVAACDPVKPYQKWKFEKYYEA
UniProt Q9NY12: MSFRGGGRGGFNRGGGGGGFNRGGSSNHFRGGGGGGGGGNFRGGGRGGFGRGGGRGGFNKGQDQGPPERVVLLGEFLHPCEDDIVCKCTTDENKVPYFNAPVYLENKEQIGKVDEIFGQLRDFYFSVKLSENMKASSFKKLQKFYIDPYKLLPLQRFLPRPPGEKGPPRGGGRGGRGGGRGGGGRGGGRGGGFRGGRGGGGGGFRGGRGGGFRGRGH
UniProt P48506: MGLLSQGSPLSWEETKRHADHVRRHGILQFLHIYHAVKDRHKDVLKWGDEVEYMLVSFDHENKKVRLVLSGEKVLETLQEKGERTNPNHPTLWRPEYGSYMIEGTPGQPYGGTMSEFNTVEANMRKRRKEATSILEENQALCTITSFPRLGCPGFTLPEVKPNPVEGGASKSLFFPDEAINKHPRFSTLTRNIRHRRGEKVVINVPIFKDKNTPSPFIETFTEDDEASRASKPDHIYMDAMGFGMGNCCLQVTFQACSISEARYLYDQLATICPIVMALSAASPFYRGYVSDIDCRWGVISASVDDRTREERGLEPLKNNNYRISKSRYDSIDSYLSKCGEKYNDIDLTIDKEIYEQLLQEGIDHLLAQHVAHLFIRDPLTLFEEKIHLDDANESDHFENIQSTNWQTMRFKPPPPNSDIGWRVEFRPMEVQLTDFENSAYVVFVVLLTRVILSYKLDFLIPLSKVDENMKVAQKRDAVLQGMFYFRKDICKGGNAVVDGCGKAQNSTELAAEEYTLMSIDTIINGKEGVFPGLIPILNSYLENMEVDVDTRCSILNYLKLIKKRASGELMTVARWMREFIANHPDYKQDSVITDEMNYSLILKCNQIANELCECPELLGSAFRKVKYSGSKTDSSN
UniProt Q9H3K2: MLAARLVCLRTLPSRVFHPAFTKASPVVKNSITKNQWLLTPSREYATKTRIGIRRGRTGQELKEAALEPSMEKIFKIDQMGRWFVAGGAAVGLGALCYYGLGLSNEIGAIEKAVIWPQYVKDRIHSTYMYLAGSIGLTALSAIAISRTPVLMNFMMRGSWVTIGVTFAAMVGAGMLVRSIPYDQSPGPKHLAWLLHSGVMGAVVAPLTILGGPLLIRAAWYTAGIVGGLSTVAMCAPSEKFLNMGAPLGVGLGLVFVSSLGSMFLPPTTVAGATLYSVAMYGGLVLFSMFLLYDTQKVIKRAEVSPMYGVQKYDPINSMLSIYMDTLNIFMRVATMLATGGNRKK
UniProt Q14697: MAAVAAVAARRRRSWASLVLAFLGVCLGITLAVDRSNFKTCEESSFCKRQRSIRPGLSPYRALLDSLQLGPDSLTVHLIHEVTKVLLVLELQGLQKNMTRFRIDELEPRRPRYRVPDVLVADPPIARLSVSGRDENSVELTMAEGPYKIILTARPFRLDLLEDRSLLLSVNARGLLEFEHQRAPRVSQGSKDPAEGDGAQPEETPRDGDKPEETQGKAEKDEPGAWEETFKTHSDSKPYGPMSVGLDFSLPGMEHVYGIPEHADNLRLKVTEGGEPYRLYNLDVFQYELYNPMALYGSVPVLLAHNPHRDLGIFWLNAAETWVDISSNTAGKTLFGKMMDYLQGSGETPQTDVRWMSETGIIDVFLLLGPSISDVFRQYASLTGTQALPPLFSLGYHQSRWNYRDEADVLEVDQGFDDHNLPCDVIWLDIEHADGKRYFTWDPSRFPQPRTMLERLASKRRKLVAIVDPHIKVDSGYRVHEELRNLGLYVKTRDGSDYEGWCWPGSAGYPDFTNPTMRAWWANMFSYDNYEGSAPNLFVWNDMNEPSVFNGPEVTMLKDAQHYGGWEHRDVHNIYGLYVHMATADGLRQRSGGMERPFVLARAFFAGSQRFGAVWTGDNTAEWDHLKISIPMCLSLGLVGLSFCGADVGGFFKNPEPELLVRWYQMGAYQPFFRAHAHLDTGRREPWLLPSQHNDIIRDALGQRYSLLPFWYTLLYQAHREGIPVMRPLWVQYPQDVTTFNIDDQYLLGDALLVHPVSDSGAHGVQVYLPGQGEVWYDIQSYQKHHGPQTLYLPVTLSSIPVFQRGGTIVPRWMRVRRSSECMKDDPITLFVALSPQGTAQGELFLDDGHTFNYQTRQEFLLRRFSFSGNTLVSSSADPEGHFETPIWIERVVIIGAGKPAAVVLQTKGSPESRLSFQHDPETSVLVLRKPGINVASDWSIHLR
UniProt Q96C23: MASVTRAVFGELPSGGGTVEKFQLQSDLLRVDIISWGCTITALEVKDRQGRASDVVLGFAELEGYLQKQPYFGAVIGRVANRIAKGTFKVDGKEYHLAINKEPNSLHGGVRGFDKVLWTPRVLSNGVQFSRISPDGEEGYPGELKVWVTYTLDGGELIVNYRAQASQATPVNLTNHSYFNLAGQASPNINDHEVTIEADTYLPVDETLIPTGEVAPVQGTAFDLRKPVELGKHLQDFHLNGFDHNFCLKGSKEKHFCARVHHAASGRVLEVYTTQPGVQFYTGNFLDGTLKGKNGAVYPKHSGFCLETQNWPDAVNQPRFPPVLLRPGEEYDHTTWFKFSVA
UniProt Q92820: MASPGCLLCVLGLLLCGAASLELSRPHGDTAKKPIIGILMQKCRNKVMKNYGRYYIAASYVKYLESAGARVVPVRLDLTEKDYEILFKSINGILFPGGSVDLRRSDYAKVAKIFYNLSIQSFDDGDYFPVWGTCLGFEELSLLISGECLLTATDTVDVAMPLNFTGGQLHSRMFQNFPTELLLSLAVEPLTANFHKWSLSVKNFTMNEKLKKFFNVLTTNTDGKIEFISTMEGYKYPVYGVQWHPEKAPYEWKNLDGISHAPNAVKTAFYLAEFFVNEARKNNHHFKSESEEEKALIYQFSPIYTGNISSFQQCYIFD
UniProt P41250: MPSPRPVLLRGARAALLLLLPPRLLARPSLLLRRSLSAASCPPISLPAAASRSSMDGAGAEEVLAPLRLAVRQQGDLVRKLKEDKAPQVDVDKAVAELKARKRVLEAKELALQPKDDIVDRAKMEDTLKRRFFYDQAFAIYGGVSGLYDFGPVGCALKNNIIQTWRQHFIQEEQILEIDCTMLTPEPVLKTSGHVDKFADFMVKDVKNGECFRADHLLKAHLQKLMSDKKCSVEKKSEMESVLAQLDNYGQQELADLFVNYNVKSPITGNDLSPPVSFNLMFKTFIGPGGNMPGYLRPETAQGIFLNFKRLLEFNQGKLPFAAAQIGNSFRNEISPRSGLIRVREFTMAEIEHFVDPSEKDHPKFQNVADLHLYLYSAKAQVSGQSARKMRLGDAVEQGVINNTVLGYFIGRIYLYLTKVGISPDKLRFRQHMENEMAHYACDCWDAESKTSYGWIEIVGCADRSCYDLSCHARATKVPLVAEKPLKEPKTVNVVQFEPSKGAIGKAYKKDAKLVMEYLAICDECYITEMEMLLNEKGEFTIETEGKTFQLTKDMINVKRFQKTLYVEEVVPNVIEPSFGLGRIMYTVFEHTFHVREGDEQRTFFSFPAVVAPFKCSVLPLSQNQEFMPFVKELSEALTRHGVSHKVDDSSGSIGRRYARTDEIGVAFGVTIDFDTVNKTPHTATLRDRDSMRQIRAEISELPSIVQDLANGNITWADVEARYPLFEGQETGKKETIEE
UniProt P55789: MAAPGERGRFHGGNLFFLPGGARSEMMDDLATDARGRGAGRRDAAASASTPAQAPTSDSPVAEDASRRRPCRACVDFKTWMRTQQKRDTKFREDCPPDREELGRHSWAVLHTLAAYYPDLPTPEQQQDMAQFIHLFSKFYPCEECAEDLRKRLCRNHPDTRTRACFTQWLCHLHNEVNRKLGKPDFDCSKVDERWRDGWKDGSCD
UniProt Q13069: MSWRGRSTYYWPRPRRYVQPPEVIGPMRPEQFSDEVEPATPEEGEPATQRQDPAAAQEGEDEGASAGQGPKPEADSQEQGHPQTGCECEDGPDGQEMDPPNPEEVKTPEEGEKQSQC

Legend:
Test in all cases: log2 fold change, soluble protein after heating vs DMSO (PISA); higher = thermal stabilisation; K562 cells, 10 uM, 30 min; active = over 0.2 and 3.5 SD of the protein, either way, in both replicates (recomputed)
[1] = compound: CC[C@@H]1C(=O)N(C)c2cnc(Nc3ccc(C(=O)NC4CCN(C)CC4)cc3OC)nc2N1C1CCCC1
Outline: (§1)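 K562 cells (2×10^6 cells/mL) were treated with 10 μM compound for 30 min, and aliquots were heated for 3 min over 48°C-58°C. Pooled aliquots were extracted in PBS with 0.5% NP-40 at 4°C, and the supernatant after 21,000xg for 90 min was measured by TMTpro 16plex LC-MS/MS with channel sums equalised. Reported thermal stability, relative to control samples and from duplicates, is a log2 fold change.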

volasertib = compound: CC[C@@H]1C(=O)N(C)c2cnc(Nc3ccc(C(=O)N[C@H]4CC[C@H](N5CCN(CC6CC6)CC5)CC4)cc3OC)nc2N1C(C)C [volasertib]
Outline: as §1

[2] = compound: CC[C@H](C)N1C=C(C2=C(C=C(C=C21)C3=CN=C(C=C3)N4CCNCC4)C(=O)NCC5=C(C=C(NC5=O)C)C)C
Outline: as §1

epoxomicin = compound: CC[C@H](C)[C@@H](C(=O)N[C@@H]([C@@H](C)O)C(=O)N[C@@H](CC(C)C)C(=O)[C@]1(CO1)C)NC(=O)[C@H]([C@@H](C)CC)N(C)C(=O)C [epoxomicin]
Outline: as §1

[3] = compound: CCn1c(C(=O)N(C2CC2)C2CC2)cc2c3c(ncn3C)c(Nc3cc(C)n(C)n3)nc21
Outline: as §1

[4] = compound: CCn1cc(-c2ccnc3[nH]c(-c4cccc(CN(C)C)c4)cc23)c(-c2ccc(NC(=O)N(C)C)cc2)n1
Outline: as §1

[5] = compound: CN(C)CC(=O)Nc1ccc2[nH]c(=O)c3ccccc3c2c1
Outline: as §1

rosiglitazone = compound: CN(CCOC1=CC=C(C=C1)C[C@H]2C(=O)NC(=O)S2)C3=CC=CC=N3 (racemic) [rosiglitazone]
Outline: as §1

[6] = compound: CN1C2=C(C3=C1C(=O)N(N=C3)CC4=CC(=CC=C4)N)SC(=C2)S(=O)C
Outline: as §1

[7] = compound: CN1CCC(CNc2ccc3ncc(-c4cccc(OC(F)(F)F)c4)n3n2)CC1
Outline: as §1

saracatinib = compound: CN1CCN(CCOc2cc(OC3CCOCC3)c3c(Nc4c(Cl)ccc5c4OCO5)ncnc3c2)CC1 [saracatinib]
Outline: as §1

sotrastaurin = compound: CN1CCN(c2nc(C3=C(c4c[nH]c5ccccc45)C(=O)NC3=O)c3ccccc3n2)CC1 [sotrastaurin]
Outline: as §1

alvocidib = compound: CN1CC[C@H](c2c(O)cc(O)c3c(=O)cc(-c4ccccc4Cl)oc23)[C@H](O)C1 [alvocidib]
Outline: as §1

Tubastatin A = compound: CN1CCc2c(c3ccccc3n2Cc2ccc(C(=O)NO)cc2)C1 [Tubastatin A]
Outline: as §1

[8] = compound: CNC(=O)C1=CC=CC=C1NC2=NC(=NC=C2Cl)NC3=C(C=C(C=C3)N4CCOCC4)OC
Outline: as §1

defactinib = compound: CNC(=O)c1ccc(Nc2ncc(C(F)(F)F)c(NCc3nccnc3N(C)S(C)(=O)=O)n2)cc1 [defactinib]
Outline: as §1

rucaparib = compound: CNCc1ccc(-c2[nH]c3cc(F)cc4c3c2CCNC4=O)cc1 [rucaparib]
Outline: as §1

[9] = compound: CNc1nc(-c2ccc3c(N)n[nH]c3c2)cc(N2C[C@@H](C(=O)NC3CCCCC3)CC[C@H]2C)n1
Outline: as §1

encorafenib = compound: COC(=O)N[C@@H](C)CNc1nccc(-c2cn(C(C)C)nc2-c2cc(Cl)cc(NS(C)(=O)=O)c2F)n1 [encorafenib]
Outline: as §1

[10] = compound: COC(=O)[C@H](CCSC)NC(=O)C1=C(C=C(C=C1)NC[C@H](CS)N)C2=CC=CC=C2
Outline: as §1

Measured: log2 fold change

G3BP1 (UniProt Q13283)
inactive: [1] 0.172 | volasertib 0.151 | [2] 0.088 | epoxomicin -0.135 | [3] -0.002 | [4] 0.103 | [5] -0.07 | rosiglitazone -0.105 | [6] 0.147 | [7] 0.053 | saracatinib -0.011 | sotrastaurin 0.086 | alvocidib 0.137 | Tubastatin A 0.055 | [8] 0.101 | defactinib 0.161 | rucaparib 0.258 | [9] 0.02 | encorafenib 0.052 | [10] 0.038

GFM1 (UniProt Q96RP9)
inactive: [1] 0.014 | volasertib -0.01 | [2] 0.041 | epoxomicin 0.081 | [3] -0.004 | [4] -0.089 | [5] 0.072 | rosiglitazone 0.046 | [6] -0.087 | [7] -0.182 | saracatinib -0.035 | sotrastaurin -0.037 | alvocidib -0.144 | Tubastatin A 0.053 | [8] 0.021 | defactinib -0.081 | rucaparib 0.009 | [9] 0.054 | encorafenib -0.01 | [10] -0.062

GAPDH (UniProt P04406)
inactive: [1] -0.021 | volasertib 0.054 | [2] -0.007 | epoxomicin -0.008 | [3] 0.023 | [4] -0.03 | [5] 0.009 | rosiglitazone -0.002 | [6] -0.064 | [7] 0.023 | saracatinib 0.066 | sotrastaurin 0.019 | alvocidib -0.072 | Tubastatin A -0.019 | [8] -0.014 | defactinib -0.004 | rucaparib 0.014 | [9] -0.005 | encorafenib -0.012 | [10] 0.015

GALNT5 (UniProt Q7Z7M9)
inactive: [1] -0.021 | volasertib -0.09 | [2] 0.005 | epoxomicin -0.001 | [3] 0.006 | [4] -0.002 | [5] -0.009 | rosiglitazone 0.013 | [6] 0.016 | [7] 0.047 | saracatinib -0.002 | sotrastaurin 0.005 | alvocidib -0.055 | Tubastatin A -0.001 | [8] 0.037 | defactinib -0.036 | rucaparib 0.041 | [9] -0.051 | encorafenib -0.006 | [10] 0.008

GCN1 (UniProt Q92616)
inactive: [1] 0.154 | volasertib 0.059 | [2] -0.008 | epoxomicin -0.287 | [3] -0.041 | [4] 0.145 | [5] -0.004 | rosiglitazone -0.075 | [6] 0.555 | [7] 0.064 | saracatinib -0.225 | sotrastaurin -0.157 | alvocidib 0.284 | Tubastatin A 0.114 | [8] 0.004 | defactinib 0.285 | rucaparib 0.606 | [9] 0.249 | encorafenib 0.278 | [10] -0.063

FSCN1 (UniProt Q16658)
inactive: [1] -0.052 | volasertib -0.044 | [2] 0.019 | epoxomicin 0.127 | [3] 0.005 | [4] 0.007 | [5] 0.027 | rosiglitazone 0.01 | [6] -0.056 | [7] -0.005 | saracatinib 0.016 | sotrastaurin -0.014 | alvocidib -0.055 | Tubastatin A -0.044 | [8] 0.087 | defactinib -0.058 | rucaparib -0.015 | [9] -0.008 | encorafenib 0 | [10] -0.013

GAR1 (UniProt Q9NY12)
inactive: [1] 0.278 | volasertib 0.217 | [2] -0.026 | epoxomicin -0.191 | [3] -0.009 | [4] 0.221 | [5] -0.086 | rosiglitazone -0.094 | [6] 0.215 | [7] 0.242 | saracatinib -0.102 | sotrastaurin 0.036 | alvocidib 0.213 | Tubastatin A 0.055 | [8] -0.02 | defactinib 0.304 | rucaparib 0.305 | [9] 0.055 | encorafenib 0.121 | [10] 0.018

GCLC (UniProt P48506)
inactive: [1] 0.006 | volasertib 0.016 | [2] -0.004 | epoxomicin 0.009 | [3] -0.023 | [4] -0.105 | [5] -0.022 | rosiglitazone 0.062 | [6] -0.006 | [7] -0.057 | saracatinib 0.008 | sotrastaurin 0.019 | alvocidib -0.025 | Tubastatin A -0.014 | [8] -0.044 | defactinib -0.042 | rucaparib -0.037 | [9] -0.014 | encorafenib 0.018 | [10] -0.014

GGA1 isoform 6 (UniProt Q9UJY5)
inactive: [1] 0.009 | volasertib -0.09 | [2] 0.056 | epoxomicin -0.005 | [3] -0.004 | [4] -0.04 | [5] 0 | rosiglitazone 0.003 | [6] -0.113 | [7] -0.001 | saracatinib 0.031 | sotrastaurin -0.021 | alvocidib -0.104 | Tubastatin A -0.02 | [8] 0.007 | defactinib -0.081 | rucaparib -0.01 | [9] 0.018 | encorafenib -0.033 | [10] -0.02

GHITM (UniProt Q9H3K2)
inactive: [1] 0.025 | volasertib 0.047 | [2] -0.021 | epoxomicin -0.029 | [3] 0.036 | [4] -0.004 | [5] 0.029 | rosiglitazone -0.019 | [6] 0.01 | [7] -0.047 | saracatinib 0.081 | sotrastaurin 0.019 | alvocidib 0 | Tubastatin A 0.001 | [8] 0.002 | defactinib 0.008 | rucaparib -0.021 | [9] -0.031 | encorafenib -0.005 | [10] 0.007

GANAB isoform 2 (UniProt Q14697)
inactive: [1] -0.032 | volasertib -0.021 | [2] 0.036 | epoxomicin 0.013 | [3] 0.017 | [4] 0.022 | [5] -0.006 | rosiglitazone -0.021 | [6] 0.06 | [7] 0.046 | saracatinib -0.054 | sotrastaurin -0.062 | alvocidib 0.019 | Tubastatin A 0.029 | [8] -0.014 | defactinib 0.048 | rucaparib 0.069 | [9] 0.029 | encorafenib 0.053 | [10] -0.009

GALM (UniProt Q96C23)
inactive: [1] 0.014 | volasertib 0.033 | [2] 0.086 | epoxomicin 0 | [3] -0.042 | [4] -0.046 | [5] 0.025 | rosiglitazone 0.01 | [6] -0.019 | [7] -0.028 | saracatinib 0.018 | sotrastaurin 0.005 | alvocidib -0.058 | Tubastatin A 0.036 | [8] -0.033 | defactinib -0.076 | rucaparib -0.002 | [9] 0.05 | encorafenib 0.002 | [10] -0.067

Pulled one by one from the list above (2):
GANAB isoform 2 (UniProt Q14697)
inactive: [1] -0.032 | volasertib -0.021 | [2] 0.036 | epoxomicin 0.013 | [3] 0.017 | [4] 0.022 | [5] -0.006 | rosiglitazone -0.021 | [6] 0.06 | [7] 0.046 | saracatinib -0.054 | sotrastaurin -0.062 | alvocidib 0.019 | Tubastatin A 0.029 | [8] -0.014 | defactinib 0.048 | rucaparib 0.069 | [9] 0.029 | encorafenib 0.053 | [10] -0.009

GHITM (UniProt Q9H3K2)
inactive: [1] 0.025 | volasertib 0.047 | [2] -0.021 | epoxomicin -0.029 | [3] 0.036 | [4] -0.004 | [5] 0.029 | rosiglitazone -0.019 | [6] 0.01 | [7] -0.047 | saracatinib 0.081 | sotrastaurin 0.019 | alvocidib 0 | Tubastatin A 0.001 | [8] 0.002 | defactinib 0.008 | rucaparib -0.021 | [9] -0.031 | encorafenib -0.005 | [10] 0.007

(list continues)

GGH (UniProt Q92820)
inactive: [1] -0.041 | volasertib -0.047 | [2] -0.059 | epoxomicin 0.064 | [3] 0.069 | [4] -0.025 | [5] 0.019 | rosiglitazone -0.046 | [6] -0.002 | [7] -0.038 | saracatinib -0.027 | sotrastaurin 0.052 | alvocidib 0.038 | Tubastatin A -0.001 | [8] -0.005 | defactinib -0.055 | rucaparib 0.007 | [9] -0.024 | encorafenib -0.016 | [10] 0.014

GARS1 (UniProt P41250)
inactive: [1] 0.014 | volasertib 0.075 | [2] -0.026 | epoxomicin 0.014 | [3] 0.025 | [4] 0.023 | [5] -0.025 | rosiglitazone -0.032 | [6] -0.067 | [7] -0.013 | saracatinib 0.024 | sotrastaurin 0.055 | alvocidib 0.007 | Tubastatin A -0.016 | [8] -0.006 | defactinib 0.005 | rucaparib -0.066 | [9] -0.028 | encorafenib -0.011 | [10] 0.011

GFER (UniProt P55789)
inactive: [1] -0.071 | volasertib 0.036 | [2] -0.03 | epoxomicin -0.028 | [3] 0.101 | [4] -0.083 | [5] -0.061 | rosiglitazone 0.026 | [6] -0.088 | [7] -0.022 | saracatinib 0.113 | sotrastaurin 0.041 | alvocidib -0.04 | Tubastatin A -0.063 | [8] -0.166 | defactinib -0.054 | rucaparib 0.129 | [9] 0.014 | encorafenib -0.104 | [10] 0.088

GAGE5 (UniProt Q13069)
inactive: [1] 0.056 | volasertib 0.076 | [2] -0.039 | epoxomicin 0.02 | [3] 0.047 | [4] 0.032 | [5] -0.056 | rosiglitazone -0.022 | [6] -0.049 | [7] -0.042 | saracatinib -0.031 | sotrastaurin 0.088 | alvocidib -0.001 | Tubastatin A 0.028 | [8] -0.096 | defactinib 0.031 | rucaparib 0.002 | [9] 0.012 | encorafenib -0.029 | [10] 0.002
